Laboratory results published in publication PMC4948773, “Identification of Preferred DNA-Binding Sites for the Thermus thermophilus Transcriptional Regulator SbtR by the Combinatorial Approach REPSA” (PLoS ONE, 2016).
Where a protein sequence is shown, tags need not be part of it.

Molecular target: T1, SbtR (Thermus thermophilus HB8) (UniProt Q5SLX6)
T1 sequence (looked up): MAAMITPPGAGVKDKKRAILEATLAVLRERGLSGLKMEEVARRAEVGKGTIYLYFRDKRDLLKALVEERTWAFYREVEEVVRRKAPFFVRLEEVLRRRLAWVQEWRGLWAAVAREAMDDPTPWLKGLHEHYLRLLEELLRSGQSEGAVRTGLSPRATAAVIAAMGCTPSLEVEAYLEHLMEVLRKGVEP
Assay: EMSA
Details: S2 complex, apparent; EMSA/REPA: 50 mM K acetate, 20 mM Tris acetate, 10 mM Mg acetate, BSA (CutSmart), pH 7.9, binding 55 C 20 min (REPA cleavage 37 C); recombinant protein; residues 1-189; label: 5' IRDye700 on strand 1

## GCCCTGACTGGCCAGTCACCCG (double strand) [SbtR mini probe 22-bp]
  Kd: 30 nM
